The record followed here is PubChem BioAssay AID2685 (National Center for Advancing Translational Sciences (NCATS), 2010).

Each structure is given as a SMILES string. This is one part of the list. Shown are side measurements of this screen, not its main read-out; they come without a call. The list favours compounds with an active or inconclusive main result. The note in brackets gives the kind of curve behind each potency; many fits are weak.

The AC50 is the concentration giving half of the maximal activity seen. Read a high AC50 as activity only at high concentration.

This assay in a line: qHTS Assay for Lipid Storage Modulators in Drosophila S3 Cells.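 As to cell number change: cells counted by Cell Tracker Red CMTPX staining in the red channel.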 Particulars: BODIPY lipid droplet fluorescence, 18-24 h; for cell number change: measured here: cell count max response, cells fed with added oleic acid. A digest of the protocol: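 Drosophila S3 cells got compounds at several concentrations plus oleic acid (400 uM solution). Laser-scanning cytometry with 488 nm excitation read lipid droplets at 500-530 nm and cells at 575-640 nm. Percent activity was relative to 20 uM Triacsin C.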
In general terms: Quantitative high-throughput screening tests each substance at several concentrations.

[1] abbreviates: measured here: lipid fluorescence (Fed channel) AC50, cells fed with added oleic acid.
The mark [2] stands for this setting: measured here: cell number channel AC50, cells fed with added oleic acid.

Turning to `CCCCC(=O)NN(C)c1nc(-c2ccccc2)nnc1C(F)(F)F`, the cell number change was found to be 0.931%. Also, the AC50 under setting [1] is 29.1 µM [rising, single point]. As for `COc1ccc(-c2cc(C(F)(F)F)n3nc(C(=O)NCCCn4ccnc4)cc3n2)cc1`, the cell number change came out at 231%. The AC50 under setting [2] was 29.1 µM [rising, single point]. The AC50 under setting [1] was 16.4 µM [rising, partial curve]. In the case of `OCC1(Cc2ccc(Cl)cc2)CCN(CCCc2ccccc2)CC1`, the cell number change worked out at 11.6%. Further, under setting [1], the AC50 was 0.00461 µM [falling, full curve, poor fit]. For the molecule `O=C(NCc1ccco1)C1CCCN1C(=O)Nc1ccc(Br)cc1` (stereo unspecified), the concentration at half-maximal activity (AC50) under setting [1] was 29.1 µM [falling, single point]. Consider `Nc1ccc(C(=O)N/N=C/c2cn(Cc3ccc(F)cc3)c3ccccc23)cc1`, for which the cell number change was -15.8%. `COc1c(C)cccc1C(=O)Nc1ccc(N2CCOCC2)c(Cl)c1`: the AC50 reads like this: under setting [2], 6.51 µM [rising, single point]; under setting [1], 6.51 µM [rising, single point]. Turning to `CCC(=O)Nc1ccc(-c2ccc(N3CCCCC3)nn2)cc1`, the cell number change is -18.9%. In addition, under setting [1], the AC50 was 29.1 µM [falling, single point]. Take `CC(Sc1nc(-c2ccccc2)cc(C(F)(F)F)n1)C(=O)Nc1sc2c(c1C#N)CCC2` (stereo unspecified): the cell number change is -22.5%. `O=C(CSc1nnc2scc(-c3ccc(F)cc3)n12)NCc1ccco1`: the cell number change came out at 13.6%. Also, the AC50 under setting [1] is 29.1 µM [rising, single point]. On to `Cc1ccc(OC(=O)C(C)c2cccc(C(=O)c3ccccc3)c2)cc1` (stereo unspecified), for which the cell number change is 7.25%. Under setting [1], the AC50 was 29.1 µM [rising, single point]. In the case of `CC1C(=O)C(C)C(c2cc(Cl)ccc2O)NC1c1cc(Cl)ccc1O` (stereo unspecified), the cell number change was -73.8%. The AC50 under setting [2] is 20.6 µM [falling, single point]. With `CCN(CC(=O)NCc1ccc(Cl)cc1)C(=O)CCc1ccccc1O`, the cell number change stood at 32.1%. Under setting [1], the AC50 is 29.1 µM [rising, single point].

As for `COc1ccc(-n2nc(C(=O)NCC(=O)NCc3ccco3)c3ccccc3c2=O)c(OC)c1`, the cell number change was found to be 8.52%.

Regarding `C[C@H](/C=C/[C@@]1(O)[C@H](C)C[C@H](O)CC1(C)C)O[C@@H]1O[C@H](CO)[C@@H](O)[C@H](O)[C@H]1O`, the AC50 under setting [2] is 0.731 µM [rising, single point]. Regarding `O=C(NCCCc1ccc(F)cc1)C1CCC(=O)N(CC2CCCCC2)C1` (stereo unspecified), the cell number change was 14.7%. Also, under setting [1], the AC50 was 25.9 µM [falling, single point]. As for `Cc1cccc(NC(=O)CSc2ccc(-c3cccnc3)nn2)c1`, the cell number change stood at 5.78%. Further, the AC50 under setting [1] was 6.51 µM [rising, full curve]. For the molecule `Cc1ccc(NS(=O)(=O)c2ccc(C(=O)N3CCN(c4ccccn4)CC3)cc2)cc1`, the cell number change is -2.61%. Besides, the AC50 under setting [1] is 2.91 µM [rising, partial curve]. On to `COCCn1cnc2c1c(=O)n(CC(=O)NN)c(=O)n2Cc1ccccc1`, for which the cell number change was determined as 17.6%. Moreover, under setting [1], the AC50 was 2.59 µM [rising, partial curve]. Regarding `Cc1noc(C)c1COc1ccc(C(=O)N(C)CCOc2ccccc2)cc1`, under setting [1], the AC50 was 4.11 µM [falling, partial curve]. `COC(=O)c1cc2c(ccn2-c2ccc(F)cc2)n1Cc1ccc(OC(C)=O)cc1`: the cell number change was -4.16%. Further, the AC50 under setting [1] is 29.1 µM [falling, single point]. With `Cn1c(-c2sccc2OCc2ccc(Cl)cc2Cl)n[nH]c1=S`, the cell number change came out at 27.5%. In addition, the AC50 under setting [2] is 0.731 µM [rising, full curve, poor fit]. For `CCOc1ccccc1N(CC(=O)NC1CCCCC1)C(=O)CCCC(=O)Nc1ccccn1`, the cell number change is -26.8%. For `Cc1ccc(C(=O)NCC(=O)OCC(=O)c2ccccc2)s1`, the cell number change was -0.505%. Besides, under setting [1], the AC50 was 23.1 µM [falling, single point]. In the case of `CC(=O)c1sc(NC(=O)CSC(C)C(=O)Nc2cc(C)on2)nc1-c1ccccc1` (stereo unspecified), the cell number change was -50%. The half-maximal activity concentration (AC50) under setting [2] was 18.4 µM [falling, single point]. For the same molecule, the AC50 under setting [1] was 18.4 µM [falling, single point].

As for `C[C@H]1CN=C(N(C)C)N1CCCC1CCCCC1`, the cell number change is -15%. The AC50 under setting [1] is 29.1 µM [falling, single point]. For `Cc1cc(C)c2[nH]c(=O)c(C(c3nnnn3CC3CCCO3)N3CCCC(C)C3)cc2c1` (stereo unspecified), the AC50 reads like this: under setting [2], 1.84 µM [rising, partial curve]; under setting [1], 0.651 µM [rising, single point]. As for `O=C(Nc1ccc2c(c1)OCO2)C1CCCN1C(=O)NCc1ccccc1` (stereo unspecified), the AC50 under setting [2] was 1.64 µM [rising, single point].

As for `CS(=O)(=O)N(CC(=O)N1CCC(C(N)=O)CC1)c1ccc(Cl)c(C(F)(F)F)c1`, the cell number change was -4.52%. Also, the AC50 under setting [2] was 0.00461 µM [falling, full curve, poor fit]. In addition, under setting [1], the AC50 was 23.1 µM [falling, partial curve]. Consider `O=C(Nc1ccccc1-c1nc2ccccc2s1)C1=COCCO1`, for which the cell number change was -21.2%. In the case of `CC(=O)Nc1cc(C(=O)O)ccc1S(=O)(=O)c1ccc(C)cc1`, the cell number change was -11.7%. Besides, the AC50 under setting [1] was 2.31 µM [falling, full curve, poor fit]. In the case of `O=C(/C=C/c1ccccc1)NC1CC2CCC1C2` (stereo unspecified), the cell number change came out at 5.86%. Also, under setting [1], the AC50 is 1.64 µM [rising, single point]. Regarding `COc1ccccc1CNC(=O)C1CCN(S(=O)(=O)c2ccc3c(c2)C(C)(C)C(=O)N3C)CC1`, the cell number change came to 10.2%.

`COc1ccc(-n2cc(C(=O)c3cc(Cl)ccc3O)cc(C#N)c2=O)cc1`: the cell number change was -11%. The half-maximal activity concentration (AC50) under setting [2] is 6.51 µM [falling, single point]. Besides, the AC50 under setting [1] is 5.17 µM [falling, partial curve]. For `O=C(c1cccc(N2CCCC2=O)c1)N1CCOCC1`, the cell number change is 1.7%. For the same molecule, the AC50 under setting [1] was 3.26 µM [falling, single point]. For the molecule `Cc1[nH]c2ccccc2c1/C=N/Nc1ccc([N+](=O)[O-])cc1`, the cell number change is -16.8%. In the case of `O=C(NC1CCS(=O)(=O)C1)c1cccc(S(=O)(=O)N2CCOCC2)c1` (stereo unspecified), the cell number change was -4.22%. Moreover, under setting [1], the AC50 was 29.1 µM [falling, single point]. Consider `CCCC(=O)Nc1ccccc1Sc1ncnc2scc(-c3ccccc3)c12`, for which the cell number change was determined as 29.9%. Besides, the AC50 under setting [1] is 0.00461 µM [falling, full curve, poor fit]. As to `COc1ccc(N(CC(=O)N2CCc3ccccc3C2)S(=O)(=O)c2c(C)[nH]c(=O)[nH]c2=O)cc1`, the cell number change was 37.4%. Further, under setting [2], the AC50 is 16.4 µM [rising, partial curve, poor fit]. Turning to `CCOC(=O)C1CCCN(C(=O)c2cnn3c(C(F)(F)F)cc(-c4ccccc4)nc23)C1` (stereo unspecified), the cell number change amounted to 21.2%. For `CC(C)CCNC(=O)CN(Cc1cccs1)C(=O)CCC(=O)Nc1nccs1`, the AC50 under setting [1] is 3.26 µM [rising, full curve]. As to `COCc1nnc(NC(=O)CSc2ccc(C)cc2)s1`, the cell number change was 29%. As to `Cc1ccc(-n2[nH]c(C)c(C=Nc3ccc(S(=O)(=O)Nc4nccs4)cc3)c2=O)cc1C`, the cell number change is -32%. In addition, the AC50 under setting [2] is 29.1 µM [falling, single point]. In addition, under setting [1], the AC50 is 32.6 µM [falling, single point]. As to `CCc1cc2c(=O)n(-c3ccccc3)cnc2s1`, the cell number change was 1.63%. Moreover, the AC50 under setting [1] was 6.51 µM [falling, single point]. Turning to `Cc1cc(-c2ccccc2)n2nc(C)c(C#N)c2n1`, the cell number change was 2.31%. Take `N/C(CSc1nc(-c2ccccc2)c(-c2ccccc2)o1)=N\O`: the cell number change is -38.5%. The AC50 under setting [2] is 18.4 µM [falling, single point].

Turning to `O=C(c1cccc(Cl)c1)N1CCN(c2ncnc3c2cnn3-c2ccccc2)CC1`, the cell number change was -36.1%. In addition, the AC50 under setting [2] is 29.1 µM [falling, single point]. For the same molecule, the AC50 under setting [1] was 29.1 µM [falling, single point]. With `COc1ccc(/C=C(/NC(=O)c2ccccc2)C(=O)NCCCn2ccnc2)cc1OC`, the cell number change was -7.65%. Moreover, the AC50 under setting [2] was 0.00461 µM [falling, full curve, poor fit]. As to `COc1cccc(N(CC(=O)Nc2cccc(F)c2)S(C)(=O)=O)c1`, the cell number change came to 1.3%. As to `COc1cc(/C=N/N(C)C)ccc1OC(=O)c1ccco1`, the AC50 under setting [1] was 6.51 µM [rising, single point]. In the case of `COC(=O)C1C(O)=C(C=Nc2ccccc2)C(=O)CC1(C)C` (stereo unspecified), the cell number change came to 43.1%. Further, the AC50 under setting [2] was 29.1 µM [rising, single point]. For the same molecule, the AC50 under setting [1] was 29.1 µM [rising, single point]. For `CC(C)C(NC(=O)C1CCCCC1)C(=O)NC1=NCCS1` (stereo unspecified), the cell number change is 34.8%. The concentration at half-maximal activity (AC50) under setting [2] was 23.1 µM [rising, single point]. With `CCOC(=O)c1sc(NC(=O)CSc2nc3ccccc3s2)c(C(=O)OCC)c1C`, the cell number change was 16.8%. In addition, under setting [1], the AC50 was 0.366 µM [rising, full curve, poor fit].

For the molecule `O=C1CC(C(=O)N(c2cccc(F)c2)C(C(=O)NC2CCCC2)c2ccccn2)CS1` (stereo unspecified), the cell number change was 0.471%. The AC50 under setting [1] was 0.731 µM [rising, single point].

With `Cc1ccc(COc2coc(CN3CCN(C(=O)c4ccco4)CC3)cc2=O)cc1`, the cell number change was -3.42%. Consider `CC(C)(C)c1cc(C(=O)O)c(CN2CCCCC2)o1`, for which the cell number change is -17.2%. Also, the AC50 under setting [1] is 32.6 µM [falling, partial curve, poor fit]. For `Cc1sc2ncn(CC(=O)NCCCC(=O)N3CCCCC3)c(=O)c2c1C`, the cell number change came out at 10.4%. For the same molecule, the AC50 under setting [1] is 0.58 µM [falling, partial curve, poor fit]. Consider `O=C(C1CCN(c2ncnc3c2nc2n3CCCCC2)CC1)N1CCN(c2ccc(F)cc2)CC1`, for which the cell number change came to 17.6%. Also, the AC50 under setting [2] is 0.058 µM [rising, full curve, poor fit]. For the same molecule, the concentration at half-maximal activity (AC50) under setting [1] is 6.51 µM [rising, single point]. As to `Cc1cccc(NC(=O)COC(=O)c2ccc(S(=O)(=O)N3CCCC3)cc2)c1`, the cell number change is -15.7%. In the case of `COc1cc(NC(=O)CCC(=O)c2cccs2)cc(OC)c1`, the cell number change was 35.1%. The AC50 under setting [2] was 3.26 µM [rising, full curve, poor fit]. Consider `Cc1ccc(S(=O)(=O)N(C)Cc2cc3cc(C)ccc3[nH]c2=O)cc1`, for which the cell number change was 22.2%. For the same molecule, under setting [1], the AC50 is 29.1 µM [rising, single point]. Regarding `COc1ccccc1-c1nc2ccccc2nc1-c1ccccc1`, the cell number change came out at 58.1%. Also, the AC50 under setting [2] was 29.1 µM [rising, single point].
